± gives the standard deviation of the averaged measurements. This is a selection; strong and weak results do not stand in their true shares.
Molecular target: CB2 (UniProt P34972)
Assay: NP40-soluble protein abundance relative to vehicle (solubility fold change) (ratio); higher = more soluble protein in presence of ATP
How it was run: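 Across three independent experiments, values are fold changes against the detergent-processed vehicle for each replicate, based on vsn-normalised intensities. The samples were Jurkat crude lysate treated with eight concentrations (0.1 to 10 mM) for 10 min at room temperature and then 3 min at 37 °C. Lysate was solubilised with 0.8% NP40 and benzonase, ultracentrifuged, and the supernatant analysed by TMT-labelled LC-MS/MS.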

The chains behind the UniProt entries cited, without tags or fusion partners.
UniProt P34972, whole entry: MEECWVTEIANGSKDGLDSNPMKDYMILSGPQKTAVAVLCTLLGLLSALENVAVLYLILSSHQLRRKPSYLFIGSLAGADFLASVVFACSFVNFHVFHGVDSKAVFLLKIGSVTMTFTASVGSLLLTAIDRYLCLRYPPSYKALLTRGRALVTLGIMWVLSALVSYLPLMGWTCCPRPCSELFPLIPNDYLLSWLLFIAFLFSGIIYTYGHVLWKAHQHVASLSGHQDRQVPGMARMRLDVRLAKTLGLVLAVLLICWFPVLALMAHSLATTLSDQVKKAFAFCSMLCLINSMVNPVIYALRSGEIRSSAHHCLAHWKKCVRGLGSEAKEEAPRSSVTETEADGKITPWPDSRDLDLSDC

Q: With `Nc1ncnc2c1ncn2[C@@H]1O[C@H](COP(=O)(O)OP(=O)(O)OP(=O)(O)O)[C@@H](O)[C@H]1O` [adenosine triphosphate] as the compound, how does the NP40-soluble protein abundance (concentration: 1mM) read?
A: The NP40-soluble protein abundance was 0.964 ± 0.057.

Q: What about the NP40-soluble protein abundance (concentration: 2mM) of the same compound?
A: Its NP40-soluble protein abundance is 0.969 ± 0.031.

Q: And the NP40-soluble protein abundance (concentration: 4mM)?
A: The NP40-soluble protein abundance was 0.946 ± 0.099.

Q: What about the NP40-soluble protein abundance (concentration: 6mM) of the same compound?
A: Its NP40-soluble protein abundance is 1.03 ± 0.11.

Q: What about the NP40-soluble protein abundance (concentration: 8mM) of the same compound?
A: Its NP40-soluble protein abundance is 0.937 ± 0.065.

Q: And the NP40-soluble protein abundance (concentration: 10mM)?
A: The NP40-soluble protein abundance was 0.908 ± 0.084.

Reference: the supplement of paper PMC6411743
